Source: paper PMC11050213

What was measured:
[1] = biological target: T1, Arabidopsis ELP4 (Arabidopsis thaliana) (UniProt Q9C778); experiment: two-hybrid; GAL4-based ProQuest system, yeast MaV203; bait in pDEST32 (BD), prey in pDEST22 (AD); growth on SD/-Leu/-Trp/-His with 10 mM 3-AT
T1 sequence: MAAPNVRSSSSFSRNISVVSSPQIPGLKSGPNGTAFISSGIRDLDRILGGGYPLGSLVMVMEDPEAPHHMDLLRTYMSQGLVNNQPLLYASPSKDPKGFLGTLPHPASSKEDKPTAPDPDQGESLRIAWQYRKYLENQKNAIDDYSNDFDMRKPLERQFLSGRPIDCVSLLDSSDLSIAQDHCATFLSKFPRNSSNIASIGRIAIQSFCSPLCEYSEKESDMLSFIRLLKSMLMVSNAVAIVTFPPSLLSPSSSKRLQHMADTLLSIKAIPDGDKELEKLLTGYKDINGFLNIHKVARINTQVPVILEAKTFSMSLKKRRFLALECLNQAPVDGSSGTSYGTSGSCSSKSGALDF

[2] = biological target: T2, Arabidopsis ELP6 (Arabidopsis thaliana) (UniProt Q8L9Y2); experiment: as above
T2 sequence: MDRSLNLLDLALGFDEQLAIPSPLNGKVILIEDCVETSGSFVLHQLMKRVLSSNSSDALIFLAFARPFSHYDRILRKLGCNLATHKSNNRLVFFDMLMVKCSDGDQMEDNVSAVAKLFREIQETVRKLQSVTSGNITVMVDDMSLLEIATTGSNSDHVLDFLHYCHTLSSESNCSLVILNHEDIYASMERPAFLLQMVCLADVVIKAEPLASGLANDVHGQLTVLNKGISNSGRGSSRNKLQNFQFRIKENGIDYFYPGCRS

Arabidopsis ELP1
binding [1]: no binding
binding [2]: no binding

No constants are given. Whether binding was seen depends on the method and setting.
